Source: PubChem BioAssay AID504791 (Drosophila RNAi Screening Center, 2011)
The screen tested about 23,000 reagents; this is an unselected part of those with a known target gene and a result. In the full data, 199 (0.86%) are marked active. 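Plate-scaled ratios behind the calls are not deposited; printed light signals are raw; many rows marked increased or decreased are still called inactive.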 Names joined by + are all predicted targets of the reagent. Not given: the direction of the score.

- Purpose: 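Genes of the fly required for silencing by miRNA, siRNA or endo-siRNA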 (primary screen)
- Cell system: Drosophila S2-derived reporter cells
- Reagent: long dsRNA against Drosophila genes, about 150-250 ng dsRNA per well (siRNA assay); about 80-120 ng (miRNA assay)
- Time to read-out: about 5 days (siRNA assay); about 4 days (miRNA assay)
- Conditions: copper sulfate induction of reporters: 25 µM (siRNA assay); 200 mM stated (miRNA assay), 1-2 days before reading
- Read-out: 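Per-well ratio of Renilla over firefly light, expressed relative to that plate's average ratio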
- Rule for the call: 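First-pass picks had plate-scaled ratios over 1.5 for the siRNA assay, over 1.6 for the miRNA assay, or under 0.6; two distinct dsRNAs had to score alike on retest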

Gene | amplicon | miRNA reporter change | stable assay Renilla, run 1 (luminescence) | stable assay firefly, run 1 (luminescence) | Outcome
CG9004 | DRSC08617 | – | 5966 | 4.60e5 | inactive
Apc2 | DRSC14115 | – | 12110 | 5.60e5 | inactive
APC4 | DRSC18360 | – | 7735 | 4.13e5 | inactive
Ran-like | DRSC10918 | – | 9135 | 2.69e5 | inactive
CG42680 | DRSC01399 | – | 7856 | 6.11e5 | inactive
Vps29 | DRSC00666 | – | 15654 | 1.14e5 | inactive
CG4269 | DRSC04457 | – | 6072 | 3.88e5 | inactive
CG31784 | DRSC01574 | – | 4463 | 2.76e5 | inactive
c(2)M | DRSC01922 | – | 14204 | 1.70e6 | inactive
CG11368 | DRSC17778 | – | 6527 | 3.70e5 | inactive
CG15597 | DRSC12283 | – | 4044 | 4.86e5 | inactive
CG17780 + CG17781 | DRSC15266 | – | 7512 | 3.40e5 | inactive
Rdh1 | DRSC06812 | – | 8146 | 6.35e5 | inactive
Acbp3 | DRSC11022 | – | 5868 | 4.36e5 | inactive
CG9948 | DRSC11104 | – | 7467 | 4.38e5 | inactive
Ssb-c31a | DRSC03443 | – | 6548 | 3.63e5 | inactive
CG5348 | DRSC06933 | – | 6355 | 3.20e5 | inactive
Stt3B | DRSC16781 | – | 7066 | 4.16e5 | inactive
spz | DRSC17065 | – | 9844 | 6.44e5 | inactive
GstD6 | DRSC16687 | – | 6690 | 4.07e5 | inactive
C901 | DRSC19351 | – | 4564 | 3.07e5 | inactive
PH4alphaSG2 | DRSC15037 | – | 6203 | 3.92e5 | inactive
Best4 | DRSC10792 | – | 8348 | 3.74e5 | inactive
CG31668 | DRSC22584 | – | 4779 | 4.23e5 | inactive
RpS5a | DRSC20282 | – | 7059 | 5.10e5 | inactive
Rbp1 | DRSC16817 | – | 10839 | 4.14e5 | inactive
CG31213 | DRSC14312 | – | 7898 | 4.37e5 | inactive
CG31213 | DRSC15647 | – | 8304 | 4.19e5 | inactive
Cpr72Ec | DRSC10449 | – | 9095 | 3.09e5 | inactive
CG15864 | DRSC15122 | – | 7639 | 4.55e5 | inactive
cn | DRSC07594 | – | 7271 | 4.42e5 | inactive
l(2)05287 | DRSC02151 | – | 8002 | 8.13e5 | inactive
l(2)05287 | DRSC02152 | – | 6044 | 3.74e5 | inactive
CG9389 | DRSC11857 | – | 10560 | 4.07e5 | inactive
CG17230 | DRSC15203 | – | 8714 | 4.71e5 | inactive
CG4704 | DRSC15628 | – | 6287 | 2.93e5 | inactive
CG14282 | DRSC14763 | – | 6775 | 3.86e5 | inactive
cmet | DRSC03511 | – | 7119 | 4.12e5 | inactive
CG32650 | DRSC19899 | – | 7099 | 5.99e5 | inactive
ZC3H3 | DRSC10696 | – | 4896 | 3.05e5 | inactive
CG31224 | DRSC15272 | – | 3900 | 3.90e5 | inactive
CG31224 | DRSC16290 | – | 8563 | 3.64e5 | inactive
Cyp4ad1 | DRSC07369 | – | 8597 | 3.63e5 | inactive
CG7131 | DRSC16203 | – | 7732 | 3.74e5 | inactive
CG3907 | DRSC04432 | – | 6604 | 5.94e5 | inactive
CG42552 (retired record) | DRSC11512 | – | 6728 | 4.19e5 | inactive
CG33116 | DRSC02045 | reporter ratio lowered past the hit cutoff | 50565 | 1.52e6 | inactive
drm | DRSC00277 | – | 7934 | 4.44e5 | inactive
CG15097 | DRSC06526 | – | 11295 | 6.13e5 | inactive
bonsai | DRSC04453 | – | 6422 | 3.80e5 | inactive
pan | DRSC17176 | – | 9134 | 4.86e5 | inactive
pan | DRSC22582 | – | 4091 | 4.10e5 | inactive
tbc | DRSC20540 | – | 5567 | 3.20e5 | inactive
tbc | DRSC23084 | – | 5034 | 4.29e5 | inactive
CG15208 | DRSC19654 | – | 6899 | 4.39e5 | inactive
Usp1 | DRSC14155 | – | 7791 | 4.83e5 | inactive
hpRNA:CR18854 + IP3K1 | DRSC02218 | – | 7244 | 3.96e5 | inactive

Not a retest: entries from further up.
Gene | amplicon | miRNA reporter change | stable assay Renilla, run 1 (luminescence) | stable assay firefly, run 1 (luminescence) | Outcome
RpS5a | DRSC20282 | – | 7059 | 5.10e5 | inactive
Rbp1 | DRSC16817 | – | 10839 | 4.14e5 | inactive
CG31213 | DRSC14312 | – | 7898 | 4.37e5 | inactive
CG31213 | DRSC15647 | – | 8304 | 4.19e5 | inactive
Cpr72Ec | DRSC10449 | – | 9095 | 3.09e5 | inactive
CG15864 | DRSC15122 | – | 7639 | 4.55e5 | inactive
